Data on one substance can be found in PMC5825159.

For this assay, the target named is T1, ZEB1-flag (UniProt Q64318).
T1 sequence: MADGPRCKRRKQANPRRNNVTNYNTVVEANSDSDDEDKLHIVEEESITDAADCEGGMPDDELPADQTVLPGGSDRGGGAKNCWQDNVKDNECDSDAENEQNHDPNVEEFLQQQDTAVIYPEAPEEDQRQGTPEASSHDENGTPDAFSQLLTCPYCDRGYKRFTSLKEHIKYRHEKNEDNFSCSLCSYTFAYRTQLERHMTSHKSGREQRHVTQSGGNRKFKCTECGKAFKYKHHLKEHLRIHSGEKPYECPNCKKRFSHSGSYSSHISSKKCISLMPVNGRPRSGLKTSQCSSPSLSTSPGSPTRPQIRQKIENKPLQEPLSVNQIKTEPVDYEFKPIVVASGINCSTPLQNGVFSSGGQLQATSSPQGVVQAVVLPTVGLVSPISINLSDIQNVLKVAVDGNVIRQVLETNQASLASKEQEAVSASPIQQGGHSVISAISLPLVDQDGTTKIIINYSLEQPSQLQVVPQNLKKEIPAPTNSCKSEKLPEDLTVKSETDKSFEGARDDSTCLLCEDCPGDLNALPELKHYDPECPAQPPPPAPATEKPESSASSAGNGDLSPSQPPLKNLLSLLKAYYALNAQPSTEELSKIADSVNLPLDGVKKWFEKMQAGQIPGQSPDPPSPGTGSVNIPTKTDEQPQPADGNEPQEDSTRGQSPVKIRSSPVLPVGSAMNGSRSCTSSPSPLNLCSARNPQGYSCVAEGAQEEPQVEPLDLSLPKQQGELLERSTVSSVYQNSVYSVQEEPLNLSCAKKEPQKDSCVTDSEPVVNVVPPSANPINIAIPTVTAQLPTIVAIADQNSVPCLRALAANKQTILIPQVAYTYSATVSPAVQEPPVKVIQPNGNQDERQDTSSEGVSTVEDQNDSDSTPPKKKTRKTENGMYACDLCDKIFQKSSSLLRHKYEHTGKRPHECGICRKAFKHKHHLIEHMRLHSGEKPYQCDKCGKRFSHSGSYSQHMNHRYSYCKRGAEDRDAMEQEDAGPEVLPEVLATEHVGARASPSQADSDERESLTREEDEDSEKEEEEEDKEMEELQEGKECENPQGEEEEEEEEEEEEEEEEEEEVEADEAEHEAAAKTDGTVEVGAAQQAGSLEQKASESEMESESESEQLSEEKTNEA
As to the kind of experiment: co-IP; HEK293 cells co-transfected with 5 ug of each expression vector; lysate incubated with Flag antibody bound beads 2h at 4°C; eluted with 3xFlag peptide; Myc-tagged SOX2 forms analysed; no DNase I.

No constants are given. Whether binding was seen depends on the method and setting. Binding seen in cells or lysates may run through a third protein. Binding can be weak; no strength is given. Tags and fused reporters may be left off the sequences shown.

For “Myc-tagged SOX2 C-terminus (domain or fragment)”, the binding result was “binds”.
